Values from PubChem BioAssay AID1508587 (Peter MacCallum Cancer Centre, 2020)

- Screen: 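Knockdowns that add to vemurafenib's cut in melanoma glycolysis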 (follow-up of hits)
- System: human WM266.4 melanoma cells with a BRAF V600 mutation
- Knock-down reagent: single siRNA against human genes, 25 nM
- Time to read-out: 96 h
- Challenge: vemurafenib 300 nM (about IC25), given 48 h after transfection for 48 h
- Measured: 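Medium lactate read by absorbance over DAPI-counted nuclei; ratio with versus without vemurafenib, set against non-targeting siRNA, averaged over 2 replicates; cell number also recorded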
- Scale: lactate per cell, drug vs no drug: higher = less drug-induced drop in lactate per cell; lactate per cell with vemurafenib: higher = more lactate per cell under drug; lactate per cell without drug: higher = more lactate per cell without drug; cell growth with vemurafenib and cell growth without drug: higher = more cell growth over 48 h
- Active means: 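a duplex is active when its lactate-per-cell ratio with versus without drug falls under 0.55, i.e. 2 SD below non-targeting; a gene is confirmed if 2 or more of 4 duplexes pass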
The deposit covers about 1,600 reagents; below is an unselected part. 623 of all reagents (39%) were called active. 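Calls are for each duplex; lactate ratios contain extreme outliers.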 A number with no mark means an inactive call. Reagents against one gene are numbered here.

gene,reagent no.,"lactate per cell, drug vs no drug",lactate per cell with vemurafenib,lactate per cell without drug,cell growth with vemurafenib,cell growth without drug
RFC3,1,0.63,1.01,1.06,1.15,1.11
RFC3,2,0.63,0.92,0.95,0.92,0.84
RFC3,3,0.55,1.1,1.3,0.56,0.44
RFC3,4,0.69,1.96,1.88,0.31,0.24
PYROXD2,1,0.62,1.36,1.39,0.27,0.24
PYROXD2,2,0.72,1.46,1.28,0.38,0.38
PYROXD2,3,0.36 (active),0.6,1.11,0.17,0.28
PYROXD2,4,0.42 (active),0.38,0.59,0.29,0.41
AK4,1,0.4 (active),2.52,4.13,0.2,0.05
AK4,2,0.56,1.34,1.54,0.49,0.37
AK4,3,0.53 (active),1.28,1.66,0.46,0.19
AK4,4,0.54 (active),0.85,1,1.07,0.85
FAM110C,1,0.48 (active),1.7,2.49,-0.19,-0.11
FAM110C,2,0.74,2.71,2.7,0,0.13
FAM110C,3,0.6,1.81,2.12,-0.07,-0.01
FAM110C,4,1,4.04,2.89,-0.23,-0.09
FHL1,1,0.49 (active),1.44,2.04,0.11,-0.05
FHL1,2,0.62,0.76,0.86,0.77,0.89
FHL1,3,0.89,1.29,1,0.59,1.04
FHL1,4,0.68,2.33,2.36,0.03,0.05
ATP5PD,1,0.65,1.28,1.29,0.71,0.72
ATP5PD,2,0.83,1.56,1.22,0.85,0.96
ATP5PD,3,0.73,1.46,1.32,0.74,0.79
ATP5PD,4,0.47 (active),0.73,1,0.69,0.65
NPIPB7,1,0.56,1.1,1.21,0.7,0.65
NPIPB7,2,0.57,1.23,1.34,0.18,0.36
NPIPB7,3,0.41 (active),0.68,1.03,0.38,0.44
NPIPB7,4,0.39 (active),0.68,1.07,0.31,0.47
ODR4,1,0.57,1.17,1.25,0.22,0.21
ODR4,2,0.61,1.17,1.16,0.05,0.17
ODR4,3,0.48 (active),1.19,1.54,0.08,0.12
ODR4,4,0.41 (active),0.9,1.35,0.8,0.5
TIMM8B,1,0.64,1.4,1.44,0.18,0.34
TIMM8B,2,0.74,3.33,2.95,0.08,0.06
TIMM8B,3,0.52 (active),0.61,0.77,1.12,1.19
TIMM8B,4,0.66,1.04,1.04,0.73,0.72
MAPK6,1,0.64,2.3,2.27,0.35,0.2
MAPK6,2,0.42 (active),0.74,1.1,0.43,0.48
MAPK6,3,0.46 (active),0.56,0.76,0.57,0.72
MAPK6,4,0.6,1.67,1.78,0.21,0.19
ZDHHC8,1,0.42 (active),1.4,2.47,0.15,0.04
ZDHHC8,2,0.5 (active),0.62,0.89,0.57,0.83
ZDHHC8,3,0.6,0.89,1.12,1,0.67
ZDHHC8,4,1.21,2.87,1.8,-0.17,-0.02
L2HGDH,1,0.59,1.01,1.14,0.07,0.06
L2HGDH,2,0.59,1.16,1.29,0.87,0.65
L2HGDH,3,0.66,1.27,1.26,0.7,0.55
L2HGDH,4,0.76,1.63,1.4,0.73,0.72
RAMP1,1,0.78,2.23,1.87,0.14,0.25
RAMP1,2,0.72,2.26,2.06,0.04,0.09
RAMP1,3,0.45 (active),1,1.44,0.27,0.14
RAMP1,4,0.9,2.09,1.52,0.37,0.61

4 entries from above, limited to “lactate per cell without drug”:
AK4 #2 = 1.54
AK4 #3 = 1.66 (active)
AK4 #4 = 1 (active)
FAM110C #1 = 2.49 (active)
